# Results deposited as PubChem BioAssay AID1159584 (Peter MacCallum Cancer Centre, 2016)
# Screen: 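Knock-downs that harm CDH1-null cells more than parental MCF10A cells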 (primary screen)
# Cells: human MCF10A breast epithelial cells, parental and CDH1-null
# Reagent: siRNA against human genes
# Read-out: 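ATP luminescence (CellTiter-Glo) viability per line relative to mean mock wells over all plates, and the ratio of CDH1-null to parental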
# Reading the numbers: CDH1-null / parental viability ratio: higher = CDH1-null cells survive relatively better than parental; CDH1-null viability vs mock: higher = more viable CDH1-null cells
# The whole screen tested about 18,000 reagents; this is a part drawn at random. Further read-outs or replicates are left out here. The record does not give: the amount of reagent, the time to read-out.
target,CDH1-null / parental viability ratio,CDH1-null viability vs mock (fraction of mock)
GJC3,0.84,0.36
ALPG,1.26,0.88
KCNJ14,1.21,0.92
PDLIM7,0.98,0.86
METTL18,0.47,0.37
COL5A2,1.05,0.82
MRPS9,0.8,0.67
MOSPD2,1.05,1.04
CENATAC,0.84,0.72
H1-2,0.84,0.76
SLC2A11,0.92,0.85
PRDX5,0.97,0.98
KCNJ3,0.98,0.78
CRYGC,1.02,0.99
LSMEM1,0.89,0.84
ATP10A,0.98,0.84
BMP4,1.16,0.88
RBP2,1.15,0.94
CLSTN2,1,1.06
MYB,1.14,1.12
TMEM43,0.54,0.3
IL23R,0.97,0.97
KLF9,0.89,0.87
MSH5,0.86,0.74
SLC45A2,1.04,0.71
TNS4,0.82,0.62
PARP4,1.18,1.11
SSNA1,1.33,0.72
ASB15,0.95,0.76
ROGDI,1.2,0.48
ATP12A,0.99,0.96
SLC16A2,0.87,0.98
MMP13,1.06,0.89
TNFRSF19,1.04,1.14

8 entries from above, arranged by “CDH1-null / parental viability ratio”, ascending.
target,CDH1-null / parental viability ratio,CDH1-null viability vs mock (fraction of mock)
METTL18,0.47,0.37
MRPS9,0.8,0.67
CENATAC,0.84,0.72
H1-2,0.84,0.76
SLC2A11,0.92,0.85
PDLIM7,0.98,0.86
COL5A2,1.05,0.82
MOSPD2,1.05,1.04

Additional results:
target,CDH1-null / parental viability ratio,CDH1-null viability vs mock (fraction of mock)
IQCK,0.89,0.73
SMR3A,1.16,0.72
RYR3,1.34,0.9
NR2C1,0.86,0.72
MYH1,1.2,0.6
HGS,1.21,0.85
ZNF394,1.41,0.62
DMAC2L,0.62,0.64
CIDEC,0.98,1
AKR1C3,1.02,0.66
TGFBR1,1,0.82
BBS1,1.17,1.1
SLIT3,1.06,0.86
INO80E,0.83,0.6
GREM2,0.97,0.73
KRT73,0.99,0.84
ARRDC3,0.95,0.9
POLK,0.95,0.76
CCDC68,0.72,0.64
APIP,1.12,0.92
SLC35A4,1.22,1.12
SOWAHC,1,0.43
LRRC28,1.11,0.8
PRPS2,0.97,0.99
OSCP1,0.91,0.73
ARHGEF37,1.13,0.96
CLRN3,0.87,0.97
PILRA,0.95,0.84
OR4C11,0.95,0.8
ACSM2B,1.14,0.88
TSPAN5,1.16,0.58
STK32C,0.96,0.77
AP3D1,0.97,0.84
IFT57,1.05,0.84
OR6N1,1.42,0.54
TBL1Y,1.17,0.55
SIRAL2,1.19,0.44
PTBP2,1,0.74
TAOK2,1.07,0.81
SELENOH,1.09,0.94
CLOCK,0.94,0.94
GLT6D1,1.07,0.94
STOML3,0.93,0.81
CAMSAP3,1.18,0.77
NCOA4,0.8,0.57
GPHRB,1.02,0.88
ADORA1,0.75,0.64
CDS1,0.94,0.91
CDC42BPB,0.88,0.77
BICDL1,1.15,0.55
SMPD1,0.96,0.77
GCN1,0.98,0.86
POLR3E,1.07,0.64
